Results as given in the supplement of paper PMC3334620.
Over roughly 33,000 sequences, “E-score (-0.5 to 0.5)” has its median near -0.016; the highest 2% begin near 0.3. The list shows a part of the results.

The sequences below were run against T1, Yer184c (UniProt P39961) (assay: PBM E-score (8-mer binding enrichment) (E-score (-0.5 to 0.5)); higher = stronger / more preferred TF binding). Conditions: protein concentration: 100 nM; construct: GST-full length.
T1 sequence: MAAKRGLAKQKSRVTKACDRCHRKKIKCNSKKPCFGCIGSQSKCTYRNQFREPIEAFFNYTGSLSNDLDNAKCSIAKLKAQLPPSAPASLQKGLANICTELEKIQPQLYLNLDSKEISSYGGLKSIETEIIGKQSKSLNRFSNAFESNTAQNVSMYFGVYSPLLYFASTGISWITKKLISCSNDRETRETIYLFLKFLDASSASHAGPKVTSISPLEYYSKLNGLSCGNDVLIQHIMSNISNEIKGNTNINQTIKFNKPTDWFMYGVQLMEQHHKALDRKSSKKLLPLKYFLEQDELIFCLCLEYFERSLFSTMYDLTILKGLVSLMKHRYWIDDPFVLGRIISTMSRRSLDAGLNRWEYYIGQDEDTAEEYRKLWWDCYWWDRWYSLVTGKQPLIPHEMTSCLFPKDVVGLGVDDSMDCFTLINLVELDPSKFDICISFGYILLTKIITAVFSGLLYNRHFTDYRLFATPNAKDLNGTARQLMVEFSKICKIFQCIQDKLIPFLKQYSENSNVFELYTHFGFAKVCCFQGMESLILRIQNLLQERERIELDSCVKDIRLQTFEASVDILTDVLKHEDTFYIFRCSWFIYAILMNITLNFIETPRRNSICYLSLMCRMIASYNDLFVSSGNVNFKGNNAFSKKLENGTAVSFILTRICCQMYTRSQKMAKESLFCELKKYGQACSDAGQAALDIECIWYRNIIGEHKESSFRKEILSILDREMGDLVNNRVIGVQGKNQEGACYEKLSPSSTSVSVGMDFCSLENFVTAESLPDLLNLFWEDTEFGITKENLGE
Procedure, shortened: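 Full-length yeast transcription factors or their DNA-binding domains, GST-tagged and expressed with PURExpress, were applied at about 100-200 nM to universal all-10-mer Agilent arrays. These arrays had been made double-stranded by primer extension on fresh or once-stripped slides. Detection used fluorescent anti-GST, normalisation used masliner, and E-scores for ungapped eight-base words pooled with reverse complements came from the Universal PBM Analysis Suite.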

| Sequence | PBM E-score |
| --- | --- |
| ACTCTGAC | -0.106 |
| ATGATTTC | 0.161 |
| GGTCCATA | -0.186 |
| ATCCTGGA | -0.0345 |
| GTGAAACA | 0.0428 |
| CCCCCAGG | -0.345 |
| AATGGCGT | -0.118 |
| AAATTCCC | -0.0964 |
| AAATGTCC | 0.00053 |
| GCGCTACA | 0.0339 |
| GGGGGATA | -0.291 |
| AAGTAAGA | -0.147 |
| AAGGCACG | -0.0497 |
| GACAGGAC | -0.0187 |
| ACTCATCG | -0.0499 |
| CGTGTCCC | -0.00254 |
| GGCCAGGA | -0.174 |
| CATCTTTC | 0.0475 |
| ACACCCAT | -0.152 |
| GCTAACGA | 0.0862 |
| CATAAATG | -0.119 |
| AACTTACA | -0.0611 |

Reprinted at random: 2 entries already listed

| Sequence | PBM E-score |
| --- | --- |
| GCGCTACA | 0.0339 |
| ACTCTGAC | -0.106 |

(listing goes on)

| Sequence | PBM E-score |
| --- | --- |
| CTTAGCGA | 0.0683 |
| GCGTTGCC | -0.0447 |
| GACCATTA | 0.0247 |
| ACTTACAC | -0.152 |
| AGCGCCTG | -0.113 |
| CAATGTCG | -0.0173 |
| AATGAGTC | -0.126 |
| TACCGAAA | 0.204 |
| CCTTACAC | -0.17 |
| TACACAGA | -0.0325 |
| AACAAGCG | 0.0886 |
| ATGCTTAG | -0.101 |
| AAGAAGCT | 0.179 |
| GATAGGCA | -0.103 |
| CAAACTCC | 0.125 |
| TGAGCTAA | 0.0351 |
| AGAGACAA | -0.00864 |
| AACATGGT | -0.165 |
| GGAGCTAA | -0.00462 |
| CGCGTGAA | 0.215 |
| ATGGTCAG | 0.0701 |
| TATGAAAA | 0.178 |

| Sequence | PBM E-score |
| --- | --- |
| GAACTGGA | 0.188 |
| AGGATTAA | 0.0521 |
| GGACGCCA | -0.224 |
| GCCGACCA | 0.0382 |
| CATAGGGG | -0.368 |
| CGAGCCGC | 0.251 |
| ATCCTAAC | 0.0876 |
| AGGTAAGG | -0.226 |
| ACAAATGA | 0.0261 |
| AGACTACT | 0.0561 |
| CTCCTAAA | -0.284 |
| CAATATTA | 0.133 |
| TAGGAAAA | -0.0497 |
| ACCGCTTA | -0.144 |
| AATGAAGC | 0.0451 |
| CCCTGTCC | -0.316 |
| GACTTGAC | 0.00358 |
| CCGTCTTA | 0.00478 |
| AATCCCCC | -0.307 |
| GCGGCAAA | 0.107 |
| ATGTAATC | -0.0318 |
| AATCGCTG | -0.00297 |

Quoted from the listing:
In PBM E-score, AGGTAAGG has -0.226
In PBM E-score, CCGTCTTA has 0.00478
In PBM E-score, AATCCCCC has -0.307
In PBM E-score, TAGGAAAA has -0.0497
In PBM E-score, GAACTGGA has 0.188

Later entries

| Sequence | PBM E-score |
| --- | --- |
| CGAATGTA | -0.151 |
| CAGCAAGA | 0.0971 |
| CGCCATTA | -0.174 |
| CTGCAAAC | -0.0687 |
| AGAGATTG | 0.0519 |
| AGAGCTGA | -0.155 |
| ATTGTTCC | 0.267 |
| AGGCGGAG | 0.0329 |
| AGTCGGCA | 0.142 |
| GCGCAGCC | -0.0557 |
| AAGCTCGG | 0.303 |
| CACACGTC | -0.199 |
| AAGTCACT | -0.144 |
| ACTCCCGG | 0.244 |
| CAGATGTC | 0.0249 |
| AACGGAGC | -0.0449 |
| GGCTGCCA | -0.0759 |
| CCCCGTAC | -0.345 |
| ACCCATGC | -0.15 |
| TCATCAGA | -0.159 |
| AGACACCG | -0.0308 |
| GGTGGTAC | -0.151 |

| Sequence | PBM E-score |
| --- | --- |
| TATTTCGA | 0.278 |
| AACCAACG | -0.0237 |
| GATGGAGA | -0.0873 |
| CCTCCCTA | -0.303 |
| CTCAGCTC | -0.11 |
| ATGACAGC | -0.0608 |
| GAGGAAGC | -0.125 |
| CTCTACCC | -0.28 |
| ACGGGGCC | -0.206 |
| CTCGATCC | 0.00106 |
| CTTTAAGC | 0.168 |
| AATACTAG | 0.0947 |
| CGACCAAC | 0.0262 |
| AAGATCTC | 0.0449 |
| GGGAACAC | 0.221 |
| GTGGAAAA | -0.0506 |
| GTGCGAAA | 0.0385 |
| AGACCACG | -0.274 |
| AAACAAGA | 0.145 |
| AGGACTTC | -0.00503 |
| AGCAGCGC | -0.177 |
| GGTGAGTA | -0.154 |
